Source: the supplement of paper PMC7858590
± gives the standard deviation of the averaged measurements. Whole data set: some 3,800 compounds, median “cell shape (eccentricity) Z-score vs DMSO control” near 1.1, cut for the lowest 2% near -4.7. The list shows a part of the results.

Tested on: human monocyte-derived macrophages (M0)
Assay: cell shape (eccentricity) Z-score vs DMSO control; higher = more elongated, M2-like morphology
Conditions: 20 µM; 24 h; macrophage state: M0 (M-CSF)

Row | SMILES | cell shape (Z-score)
1 | CN1[C@@H]2CC[C@H]1C[C@@H](OC(=O)N1Cc3ccccc3NC1=O)C2 | 2.68
2 | C=CCN1CC[C@]23c4c5ccc(O)c4OC2C(=O)CC[C@@]3(O)[C@H]1C5 (some centres undefined) | -1.34
3 | Cc1cc(O)ccc1Cl | -0.646
4 | CN1C2CCC1CC(OC(c1ccccc1)c1ccccc1N)C2 (centres undefined) | 13.7
5 | COc1ccc2c3c4n(c2c1)[C@@H](C=C(C)C)OOC(C)(C)C[C@@H]4N1C(=O)[C@@H]2CCCN2C(=O)[C@]1(O)[C@H]3OCC=C(C)C | -1.26
6 | COc1cc2c(cc1OC)-c1c(oc3c4c(ccc3c1=O)OC(C(C)C)C4)CO2 (centres undefined) | 4.81
7 | CC1CCCCCC(=O)c2c(O)cc(O)cc2CC(=O)O1 (centres undefined) | 2.72
8 | COc1ccc(CC2C(=O)OCC2Cc2ccc3c(c2)OCO3)cc1OC (centres undefined) | 1.72
9 | c1cc2c(c(N3CCNCC3)c1)OCCO2 | 7.56
10 | C#CCN(C)C(C)Cc1ccccc1 (centres undefined) | -2.31
11 | CO[C@H]1[C@H](O)[C@H](O[C@H]2CC[C@]3(C)C4CC[C@]5(C)[C@H](C6=CC(=O)OC6)CC[C@]5(O)C4CC[C@@H]3C2)O[C@@H](C)[C@@H]1O (some centres undefined) | 1.07
12 | CC(C)=CCc1c(O)cc2c(c1O)C(=O)CC(c1ccc(O)cc1)O2 (centres undefined) | 1.18 ± 0.047
13 | Cc1ccc2c(c1)Cc1c(C(=O)NC3CCCCC3)nn(-c3ccc(Cl)cc3Cl)c1-2 | 2.43
14 | COc1ccc(CN2CCNCC2)c(OC)c1OC | 2.48
15 | CC(C)CC1C(=O)N2CCC[C@H]2C2(O)O[C@](NC(=O)C3C=C4c5cccc6[nH]c(Br)c(c56)C[C@H]4N(C)C3)(C(C)C)C(=O)N12 (some centres undefined) | 4.71
16 | CC(C)N(CCC(C(N)=O)(c1ccccc1)c1ccccn1)C(C)C (centres undefined) | 2.88
17 | CC(C)=CCCC1(C)C=Cc2c(O)c3c(c(CC=C(C)C)c2O1)OC12C(=CC4CC1C(C)(C)OC2(C/C=C(/C)C(=O)O)C4=O)C3=O (centres undefined) | -3.65
18 | CN1C2CCC1CC(OC(=O)c1cc(Cl)cc(Cl)c1)C2 (centres undefined) | 0.939
19 | CCCN(CC=CI)C1CCc2ccc(O)cc2C1 (centres undefined) | 4.9
20 | CN1CCc2cc3c(cc2[C@H]1C1OC(=O)c2c1ccc1c2OCO1)OCO3 (some centres undefined) | 0.327
21 | CC1=CC(=O)c2c(O)cccc2C1=O | -4.68
22 | CC(C)[C@]1(O)[C@@H](OC(=O)c2ccc[nH]2)[C@@]2(O)[C@@]3(C)C[C@]4(O)O[C@@]5([C@H](O)[C@@H](C)CC[C@]35O)[C@@]2(O)[C@]41C | 0.223
23 | COC(=O)[C@@]12C(=O)C(C)C(=O)[C@]1(C)C(C)=C[C@H]1[C@]3(C=O)CC[C@H](OC(C)=O)C(C)(C)[C@H]3CC[C@@]12C (some centres undefined) | 0.645
24 | O=C(O)CCCOc1ccc(Cl)cc1Cl | 3.24

Row | SMILES | cell shape (Z-score)
25 | CCN(CC)CCOC(=O)C(C)(c1ccccc1)c1ccccc1 | 1.67
26 | COc1cc2c(c(OC)c1OC)-c1ccc(OC)c(=O)cc1C(NC(C)=O)CC2 (centres undefined) | 8.73
27 | CN(C)CCN(C)CCc1ccc(Cl)c(Cl)c1 | 2.25
28 | C[As](C)SC[C@H](NC(=O)CC[C@H](N)C(=O)O)C(=O)NCC(=O)O | 0.0955
29 | COC1C(O)CC(OC2C(O)CC(OC3C(O)CC(OC4CCC5(C)C(CCC6[C@@H]5CC(O)C5(C)C(C7=CC(=O)OC7)CCC65O)C4)OC3C)OC2C)OC1C (some centres undefined) | -1.9
30 | CCOC(=O)c1ncn2c1CN(C)C(=O)c1cc(N=[N+]=[N-])ccc1-2 | 2.52
31 | CN1CCc2cc(Cl)c(O)cc2[C@H]2c3ccccc3CC[C@@H]21 | 0.696
32 | CC12CC[C@H]3C(CCC4(O)CC(O)CCC34O)C1(O)CCC2C1=CC(=O)OC1 (some centres undefined) | 1.22
33 | C[C@@]12C[C@@H](c3ccoc3)OC(=O)C1CC[C@]1(C)[C@H]2[C@H]2C=C[C@]1(O)C(=O)O2 (some centres undefined) | -0.795
34 | COc1cc(OC)c(OC)cc1C=O | 2.29
35 | C[C@@H]1C[C@@H]([C@H](O)CC2CC(=O)NC(=O)C2)C(=O)[C@@H](C)C1 | -0.745
36 | C1CCc2nnnn2CC1 | -3.13
37 | COC1=CC(=O)OC(/C=C/c2ccccc2)C1 (centres undefined) | 3.39
38 | COc1cc(C2c3cc4c(cc3CC3COC(=O)C32)OCO4)cc(OC)c1OC (centres undefined) | -0.15
39 | CC(Cc1ccc(O)cc1)NCC(O)c1cc(O)cc(O)c1 (centres undefined) | 1.87
40 | COC(=O)C1=COC(C)C2CN3CCc4c([nH]c5cc(OC)ccc45)C3CC12 (centres undefined) | -1.96
41 | C=CC/C=C\C/C=C\CCCCCCCc1cc(O)cc(O)c1 | 1.19
42 | CCCCC/C=C\C/C=C\C/C=C\C/C=C\CCCC(=O)NCc1ccc(O)c(OC)c1 | -0.144
43 | CCCCCCC(C)(C)c1ccc(C2CC(O)CCC2CCCO)c(O)c1 (centres undefined) | 2.5
44 | OC[C@@H]1CCCN2CCCC[C@H]12 | 1.75
45 | C[C@]12CCC3C(CC[C@]4(O)C[C@@H](O)CC[C@]34C=O)[C@@]1(O)CCC2C1=CC(=O)OC1 (some centres undefined) | -3.05
46 | CO[C@H]1[C@@H](O)[C@@H](C)O[C@@H](OC2CCC3(C)C(CC[C@@H]4[C@@H]3CCC3(C)C(C5=CC(=O)OC5)C(O)CC43O)C2)[C@@H]1O (some centres undefined) | -1.74 ± 0.077
47 | CC1(C)C(=O)C=C[C@@]2(C)C1C[C@@H](O)[C@]1(C)C2CC[C@@]2(C)[C@H](c3ccoc3)OC(=O)[C@H]3O[C@]321 (some centres undefined) | 1.86
48 | Cc1ncc(CNC(=O)N(CCCl)[N+][O-])c(N)n1 | -0.322

Row | SMILES | cell shape (Z-score)
49 | Oc1ccc2c3c1OC1c4[nH]c5ccccc5c4CC4(O)C(C2)N(CC2CC2)CCC314 (centres undefined) | 2.11
50 | CCC(Oc1ccc(Cl)cc1)C(=O)OC1CC2CCC(C1)N2C (centres undefined) | 3.78
51 | CC(C)[N+](C)(CCC(C(N)=O)(c1ccccc1)c1ccccc1)C(C)C | 1.08
52 | O=C(CCCN1CCC2(CC1)C(=O)N(Cc1cccc(F)c1)CN2c1ccccc1)c1ccc(F)cc1 | -0.999
53 | CN1C2CCC1CC(OC(c1ccccc1)c1ccc(Cl)cc1)C2 (centres undefined) | 2.13
54 | COP(=S)(OC)Oc1ccc(SC)c(C)c1 | 2.72
55 | C=CCN1CCC23c4c5ccc(O)c4OC2C(=O)CCC3(O)C1C5 (centres undefined) | 3
56 | Fc1ccc(C(OCCN2CCN(CCCc3ccccc3)CC2)c2ccc(F)cc2)cc1 | -0.302
57 | C[C@]12CC[C@H]3[C@@H](CC[C@]4(O)C[C@@H](O)CC[C@]34C=O)[C@@]1(O)CC[C@@H]2C1=CC(=O)OC1 | -0.816
58 | O=C1CCCC2C3CC(CN12)[C@@H]1CCCCN1C3 (some centres undefined) | 1.6
59 | N=C(NCc1ccc(Cl)cc1)SCCCc1c[nH]cn1 | 0.48
60 | O=C(NCCN1CCC2(CC1)C(=O)NCN2c1ccccc1)c1ccc2ccccc2c1 | 0.637
61 | COc1cc(C)c(Oc2cc(C)cc(O)c2)c(O)c1 | -1.26
62 | N#CC(O[C@@H]1O[C@H](CO[C@@H]2O[C@H](CO)[C@@H](O)[C@H](O)[C@H]2O)[C@@H](O)[C@H](O)[C@H]1O)c1ccccc1 (some centres undefined) | 0.645
63 | CC[C@H]1CN2CCC1C[C@@H]2[C@@H](O)c1ccnc2ccc(OC)cc12 (some centres undefined) | 1.7
64 | OC12C3C4CC5C6C4C1C6C(C53)N2CCc1cccc(F)c1 (centres undefined) | -1.2
65 | CC(C)c1cc2c(cc1O)[C@@]1(C)C[C@@H](O)CC(C)(C)C1CC2 (some centres undefined) | 1.57
66 | CCC(COC(=O)c1cc(OC)c(OC)c(OC)c1)(c1ccccc1)N(C)C (centres undefined) | 3.35
67 | Oc1ccc(Cl)cc1 | -1.34
68 | CC(=O)O[C@H]1C(=O)[C@@]2(C)C([C@H](OC(=O)c3ccccc3)[C@]3(O)C[C@H](O)C(C)=C1C3(C)C)[C@]1(OC(C)=O)CO[C@@H]1C[C@@H]2O (some centres undefined) | -3.7
69 | O=C1CCC2(O)C3Cc4ccc(O)c5c4C2(CCN3CC2CC2)C1O5 (centres undefined) | 2.03
70 | CC(=O)Oc1ccc(Cl)c2cccnc12 | 2.8
71 | CC(O)(CS(=O)(=O)c1ccc(F)cc1)C(=O)Nc1ccc(C#N)c(C(F)(F)F)c1 (centres undefined) | -3.38
72 | COC(=O)CN1CN(c2ccccc2)C2(CCN(Cc3ccc4ccccc4c3)CC2)C1=O | 3.67

Row | SMILES | cell shape (Z-score)
73 | NC(=O)CN1CCCC1=O | -0.0247
74 | C#CCN1C(C)=C(C(=O)CCO)C(c2cccc(-n3oo3)c2)C(C(=O)OC)=C1C (centres undefined) | 2.66
75 | CO[C@H]1C[C@H](OC2CCC3(C)C4CCC5(C)C(C6=CC(=O)OC6)CC(OC(C)=O)C5(O)C4CC[C@H]3C2)O[C@@H](C)[C@@H]1O (some centres undefined) | -2.73
76 | CN1Cc2ccccc2[C@@H]2c3cccc4[nH]cc(c34)C[C@H]21 | 3.17
77 | O=C1C=C2C=C[C@@H]3C[C@@]2(O1)[C@H]1CCCCN31 | 3.83
78 | CC[N+]1(C)CCCC(OC(=O)C(O)(c2ccccc2)c2ccccc2)C1 (centres undefined) | -1.53
79 | OC[C@H]1O[C@@H](Oc2ccc(/C=C/c3cc(O)cc(O)c3)cc2O)[C@H](O)[C@@H](O)[C@@H]1O | -0.871
80 | c1ccc(CCCN2CCN(CCOC(c3ccccc3)c3ccccc3)CC2)cc1 | 4.69
81 | C#CCOC(=O)C1=CCCN(C)C1 | -0.795
82 | C[C@]12CC[C@@H](O)C[C@@H]1CC[C@@H]1[C@@H]2CC[C@]2(C)[C@@H](C(=O)CO)CC[C@@H]12 | 5.44
83 | N#CC(O[C@@H]1O[C@H](CO)[C@@H](O)[C@H](O)[C@H]1O)c1ccccc1 (some centres undefined) | -1.17
84 | CNC(=NS(=O)(=O)c1ccc(Cl)cc1)N1C[C@H](c2ccccc2)C(c2ccc(Cl)cc2)=N1 | 1.48
85 | CCOP(=S)(OCC)Oc1cc(C)nc(C(C)C)n1 | 0.52
86 | Clc1ccc(C2=CCCC3CCC2N3)cn1 (centres undefined) | 7.05
87 | Cn1c2c(c3ccccc31)CCNCC2 | 1.06
88 | c1ccc2sc(C3(N4CCCC4)CCCCC3)cc2c1 | 1.93
89 | NCCc1c[nH]c2ccccc12 | 2.21
90 | CC(=O)OC1CCC2(C)C(CC[C@@H]3[C@@H]2CCC2(C)C(C4=CC(=O)OC4)CCC32O)C1 (some centres undefined) | 0.344
91 | CC(C)(O)/C=C/C(=O)[C@](C)(O)C1[C@H](O)C[C@@]2(C)C3CC=C4C(CC(=O)C(=O)C4(C)C)[C@]3(C)C(=O)C[C@]12C (some centres undefined) | -23.9
92 | COC(=O)c1cc2c(cn1)[nH]c1ccccc12 | 1.76
93 | S=C(NC1CCCCC1)N1CCC(c2c[nH]cn2)CC1 | 1.33
94 | CO[C@@H]1[C@H](O)[C@@H](O[C@@H]2C[C@H]3CC[C@@H]4C(CC[C@]5(C)[C@@H](C6=CC(=O)OC6)CC[C@]45O)[C@@]3(C)[C@H](O)C2)O[C@H](C)[C@@H]1O[C@@H]1O[C@H](CO)[C@@H](O)[C@H](O)[C@H]1O (some centres undefined) | -2.59 ± 0.87
